Experimental data reported in publication PMC2727916.
These are yes or no findings as the source states them, for the method shown. Binding seen in cells or lysates may run through a third protein. Binding can be weak; no strength is given.

T1: GASZ, endogenous in mouse testis (mouse (endogenous in testis)) (UniProt Q8VD46)
T1 sequence: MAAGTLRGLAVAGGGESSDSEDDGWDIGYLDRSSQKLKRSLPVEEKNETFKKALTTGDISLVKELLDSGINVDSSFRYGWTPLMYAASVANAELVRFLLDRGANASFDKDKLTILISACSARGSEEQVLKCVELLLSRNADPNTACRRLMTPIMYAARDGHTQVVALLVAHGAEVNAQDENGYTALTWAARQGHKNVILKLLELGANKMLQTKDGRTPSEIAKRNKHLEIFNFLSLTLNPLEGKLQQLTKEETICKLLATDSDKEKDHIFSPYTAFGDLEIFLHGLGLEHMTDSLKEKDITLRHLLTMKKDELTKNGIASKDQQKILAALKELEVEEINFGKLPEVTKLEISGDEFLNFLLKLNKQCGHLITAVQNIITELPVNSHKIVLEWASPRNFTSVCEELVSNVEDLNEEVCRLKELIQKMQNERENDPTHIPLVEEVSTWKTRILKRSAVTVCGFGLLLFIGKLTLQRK


What was measured:
[1] = target: T1, GASZ, endogenous in mouse testis (mouse (endogenous in testis)); assay: co-IP; 1 mg testicular lysate of 21-day-old WT mice, 0.5% NP-40 lysis buffer, pre-cleared, overnight at 4°C with anti-GASZ, anti-MIWI or no primary antibody, protein G beads in 5% BSA; western blot
[2] = target: MIWI, endogenous in mouse testis (mouse (endogenous in testis)); assay: as above

binding [1] | binding [2] | Molecule
no binding | – | MILI, endogenous in mouse testis
binds | – | MIWI, endogenous in mouse testis
– | binds | GASZ, endogenous in mouse testis (protein, UniProt Q8VD46 1-475) MAAGTLRGLAVAGGGESSDSEDDGWDIGYLDRSSQKLKRSLPVEEKNETFKKALTTGDISLVKELLDSGINVDSSFRYGWTPLMYAASVANAELVRFLLDRGANASFDKDKLTILISACSARGSEEQVLKCVELLLSRNADPNTACRRLMTPIMYAARDGHTQVVALLVAHGAEVNAQDENGYTALTWAARQGHKNVILKLLELGANKMLQTKDGRTPSEIAKRNKHLEIFNFLSLTLNPLEGKLQQLTKEETICKLLATDSDKEKDHIFSPYTAFGDLEIFLHGLGLEHMTDSLKEKDITLRHLLTMKKDELTKNGIASKDQQKILAALKELEVEEINFGKLPEVTKLEISGDEFLNFLLKLNKQCGHLITAVQNIITELPVNSHKIVLEWASPRNFTSVCEELVSNVEDLNEEVCRLKELIQKMQNERENDPTHIPLVEEVSTWKTRILKRSAVTVCGFGLLLFIGKLTLQRK
